Results taken from US9676793B2, “Co-crystals of 5-amino-2-oxothiazolo[4,5-d]pyrimidin-3(2H)-yl-5-hydroxymethyl tetrahydrofuran-3-yl acetate and methods for preparing and using the same” (Hoffmann-La Roche Inc., priority 2014, dated 2017).

Test: Salt factor (S)

“5-amino-3-(2′-O-acetyl-3′-deoxy-β-D-ribofuranosyl)-3H-thiazolo[4,5]pyrimidine-2-one [glutaric acid co-crystal]” gave a Salt factor of 1.2.
